# Measured values as given in PubChem BioAssay AID328 (DTP/NCI, 2004).
# The list does not hold the whole screen: it is rich in T/C values a quarter to a half above the control, in often repeated tests (any T/C) and in doses without a T/C. Other doses and runs of a compound stand elsewhere. T/C: endpoint of the treated group in % of that of the vehicle group. Some entries give survivors of the animals treated and no T/C: the source holds a T/C of zero for them, seemingly a mark for toxic or unscored doses. Some survivor counts are full or nearly so, which does not show that the dose was tolerated: survival well below the control is almost never listed, so the zero probably covers shortened survival too. Counts of survivors are from the toxicity check (mostly the fifth day) where no day follows; animals may have died later. Schedule codes are those of the source, read here as Q, the interval in days (D) or hours (H), X, the number of doses. Some entries were tested several times; the results are listed from low to high. Counts like (3×) give the number of equal values in this list. For survival time, the PubChem record calls one and a half times the control and up active, and a quarter to a half above the control has no call in these data; cut-offs in other NCI protocols can differ. Some T/C values are followed by the survivors on the day toxicity was checked, most often the fifth; without a count, all were alive then.
# System: BDF1 mice, P388 leukemia ip, median survival T/C
# Test: NCI In Vivo Anticancer Drug Screen. Data for tumor model P388 Leukemia (intraperitoneal) in B6D2F1 (BDF1) mice
# Details: T/C endpoint: median survival time, higher T/C = longer survival
# Outline: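 Compound-treated tumour-bearing mice were compared with vehicle-treated controls. Survival was recorded, and the value is the treated-group measurement divided by the control-group measurement (T/C).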
# [1] = dose: 100.0 mg/kg/injection, schedule: Q01DX009 (ip), vehicle: Klucel (hydroxypropylcellulose) (HPC)
# [2] = dose: 240.0 mg/kg/injection, schedule: Q01DX010 (ip), vehicle: saline
# [3] = dose: 400.0 mg/kg/injection, schedule: Q01DX001 (ip), vehicle: Klucel (hydroxypropylcellulose) (HPC)
smiles,measurement,setting,value
CC(CN1CC(=O)NC(=O)C1)N1CC(=O)NC(=O)C1 (stereo not given),T/C,"dose: 100.0 mg/kg/injection, schedule: Q01DX005 (ip), vehicle: Klucel (hydroxypropylcellulose) (HPC), evaluated on day 30","86, 111, 139 [5 of 6 alive], 140, 142, 148, 152, 155, 159, 161, 164, 166 (3×), 168, 170, 173, 174, 176, 177, 178, 179, 183, 184, 191, 199, 202, 208 % of control (2×)"
same,T/C,"dose: 100.0 mg/kg/injection, schedule: Q01DX005 (ip), vehicle: Klucel (hydroxypropylcellulose) (HPC), evaluated on day 35",177 % of control
same,survivor count,"dose: 100.0 mg/kg/injection, schedule: Q01DX005 (ip), vehicle: Klucel (hydroxypropylcellulose) (HPC)",3 of 3 (2×) and 6 of 6
same,T/C,[1],"86, 89, 92 (2×), 95, 99, 100, 101 (2×), 104 (2×), 111, 114, 116, 122, 125, 126, 137, 169, 171, 175, 191, 191 [2 of 3 alive], 193, 195, 202, 205, 208 (2×), 225, 288 % of control"
same,survivor count,[1],3 of 3 and 6 of 6 (2×)
same,T/C,"dose: 100.0 mg/kg/injection, schedule: Q04DX002 (ip), vehicle: Klucel (hydroxypropylcellulose) (HPC)",128 % of control
same,T/C,"dose: 108.0 mg/kg/injection, schedule: Q04DX003 (ip), vehicle: Klucel (hydroxypropylcellulose) (HPC)",142 % of control
same,T/C,"dose: 108.0 mg/kg/injection, schedule: Q04DX003 (ip), vehicle: alkali diluted with saline",149 % of control
same,survivor count,"dose: 120.0 mg/kg/injection, schedule: Q01DX010 (ip), vehicle: saline",6 of 6
same,T/C,"dose: 150.0 mg/kg/injection, schedule: Q04DX002 (ip), vehicle: Klucel (hydroxypropylcellulose) (HPC), evaluated on day 30","98, 105, 107 (2×), 111, 112 (2×), 114, 119 (2×), 120, 121 (2×), 123 (2×), 125 (4×), 127, 131 (3×), 137, 138, 144, 153, 162 % of control"
same,T/C,"dose: 150.0 mg/kg/injection, schedule: Q04DX002 (ip), vehicle: Klucel (hydroxypropylcellulose) (HPC), evaluated on day 35",139 % of control
same,survivor count,"dose: 150.0 mg/kg/injection, schedule: Q04DX002 (ip), vehicle: Klucel (hydroxypropylcellulose) (HPC)",3 of 3
same,T/C,"dose: 150.0 mg/kg/injection, schedule: Q04DX003 (ip), vehicle: Klucel (hydroxypropylcellulose) (HPC), evaluated on day 30","104, 107, 110 (2×), 113 (2×), 120, 121 (2×), 125, 128, 129, 130, 131, 133, 134, 135, 138, 139, 143, 145, 148, 149, 152, 153 (2×), 158, 163, 169, 174 % of control"
same,T/C,"dose: 150.0 mg/kg/injection, schedule: Q04DX003 (ip), vehicle: Klucel (hydroxypropylcellulose) (HPC), evaluated on day 35",171 % of control
same,survivor count,"dose: 150.0 mg/kg/injection, schedule: Q04DX003 (ip), vehicle: Klucel (hydroxypropylcellulose) (HPC)",1 of 3
same,T/C,"dose: 180.0 mg/kg/injection, schedule: Q04DX003 (ip), vehicle: Klucel (hydroxypropylcellulose) (HPC)",149 % of control
same,T/C,"dose: 200.0 mg/kg/injection, schedule: Q01DX001 (ip), vehicle: Klucel (hydroxypropylcellulose) (HPC)","106, 108 (2×), 111, 113 (2×), 115 (2×), 118, 122, 123 (4×), 125, 127 (3×), 128, 129, 132 (2×), 133, 137, 139, 142 (3×), 145, 161 % of control"
same,T/C,"dose: 200.0 mg/kg/injection, schedule: Q01DX001 (ip), vehicle: steroid suspending solution",129 % of control
same,T/C,"dose: 200.0 mg/kg/injection, schedule: Q04DX002 (ip), vehicle: Klucel (hydroxypropylcellulose) (HPC)",137 % of control
same,T/C,[2],128 % of control
same,survivor count,[2],6 of 6
same,T/C,"dose: 300.0 mg/kg/injection, schedule: Q04DX002 (ip), vehicle: Klucel (hydroxypropylcellulose) (HPC), evaluated on day 30","104, 112, 122, 124, 126, 142, 146 (2×), 152 (2×), 156, 158, 160 (2×), 166, 168 (2×), 175, 179, 191 (2×), 194 (2×), 207, 208 (2×), 215, 238 % of control"
same,T/C,"dose: 300.0 mg/kg/injection, schedule: Q04DX002 (ip), vehicle: Klucel (hydroxypropylcellulose) (HPC), evaluated on day 35",179 % of control
same,survivor count,"dose: 300.0 mg/kg/injection, schedule: Q04DX002 (ip), vehicle: Klucel (hydroxypropylcellulose) (HPC)",3 of 3
same,T/C,"dose: 300.0 mg/kg/injection, schedule: Q04DX003 (ip), vehicle: Klucel (hydroxypropylcellulose) (HPC), evaluated on day 30","94, 112, 115, 116, 127, 138, 144, 152 (2×), 166 (3×), 169, 172, 174, 178, 179, 183, 186, 190, 198, 204 (2×), 205, 213, 221, 223 (2×), 225, 230, 239 % of control"
same,T/C,"dose: 300.0 mg/kg/injection, schedule: Q04DX003 (ip), vehicle: Klucel (hydroxypropylcellulose) (HPC), evaluated on day 35",220 % of control
same,T/C,"dose: 300.0 mg/kg/injection, schedule: Q04DX003 (ip), vehicle: Klucel (hydroxypropylcellulose) (HPC), evaluated on day 60",91 and 129 % of control
same,survivor count,"dose: 360.0 mg/kg/injection, schedule: Q04DX003 (ip), vehicle: Klucel (hydroxypropylcellulose) (HPC)",8 of 8
same,T/C,[3],"105, 116 (2×), 123, 127, 128, 132, 135, 137 (2×), 140, 141, 143 (2×), 147, 150 (2×), 153, 153 [2 of 3 alive], 154, 155, 161, 163, 173, 174, 177, 180, 186, 189 % of control"
same,survivor count,[3],3 of 6
same,T/C,"dose: 400.0 mg/kg/injection, schedule: Q04DX003 (ip), vehicle: Klucel (hydroxypropylcellulose) (HPC), evaluated on day 38",171 % of control
same,T/C,"dose: 400.0 mg/kg/injection, schedule: Q04DX003 (ip), vehicle: Klucel (hydroxypropylcellulose) (HPC), evaluated on day 46",88 % of control
same,T/C,"dose: 400.0 mg/kg/injection, schedule: Q04DX003 (ip), vehicle: Klucel (hydroxypropylcellulose) (HPC), evaluated on day 60",92 and 235 % of control
same,survivor count,"dose: 600.0 mg/kg/injection, schedule: Q04DX003 (ip), vehicle: Klucel (hydroxypropylcellulose) (HPC)",7 of 8
same,survivor count,"dose: 1000.0 mg/kg/injection, schedule: Q04DX003 (ip), vehicle: Klucel (hydroxypropylcellulose) (HPC)",3 of 8
